Reference: PubChem BioAssay AID1487 (National Center for Advancing Translational Sciences (NCATS), 2009)
The list shows a part of the results. Further columns of the screen follow, without active or inactive calls. Most of these compounds were active or inconclusive in the main read-out, so they are no random draw. Words in brackets tell the shape of the fitted curve; partial curves, single points and poor fits give uncertain potencies.

Assay: qHTS Assay for Modulators of Lamin A Splicing
Conditions: HeLa LMNA splicing GFP/RFP minigene ratio, 48 h
Method in brief: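 Read-out is the ratio of GFP to DsRed2 object intensity, acquired by 488 nm laser-scanning cytometry on HeLa lamin A-EGFP minigene reporter cells. Compound incubation 48 hrs at 37 °C in Opti-MEM with 2% FBS; DMSO 0.5% final.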

[1] = measured here: RFP viability control channel
[2] = measured here: GFP splicing reporter channel

SMILES	AC50 [1]	AC50 [2]
CC(=O)c1c(C)[nH]c(C(=O)NCCC2=CCCCC2)c1C	11.2 µM [rising, partial curve]	–
Cc1ccc(-n2c(SCC(=O)NCc3ccccc3)nc3n[nH]c(C)c3c2=N)cc1Cl	0.0631 µM [falling, full curve, poor fit]	–
O=C(Nc1cccnc1)C1CCN(S(=O)(=O)c2cccs2)CC1	–	0.00501 µM [falling, full curve, poor fit]
Cc1ccc(/C=C/C(=O)Nc2ccc(S(N)(=O)=O)cc2)o1	0.2 µM [rising, full curve, poor fit]	–
Cn1c[n+](C)cc1-c1ccc(/C(N)=N/O)cc1	1.58 µM [falling, full curve, poor fit]	–
COc1ccc(NC(=O)C(c2ccccc2)c2ccccc2)cn1	–	5.62 µM [rising, partial curve, poor fit]
Oc1c(C(c2ccc(F)cc2)N2CCc3ccccc3C2)sc2ncnn12 (configuration not stated)	12.6 µM [rising, single point]	–
CCOC(=O)Cc1csc(NC(=O)c2ccc(S(=O)(=O)N3CCCC3)cc2)n1	11.2 µM [rising, partial curve]	–
CC(C)OC(=O)c1cccnc1N1CCN(c2ccc(F)cc2)CC1	3.98 µM [falling, single point]	–
Cc1csc2ncnc(NNC(=O)c3ccc(Cl)cc3)c12	1.41 µM [falling, partial curve, poor fit]	11.2 µM [falling, single point]
Cc1nc(-c2ccc(S(=O)(=O)N3CCCCCC3)cc2)cs1	14.1 µM [rising, single point]	–
CCOC(=O)c1cccc(NC(=O)c2cn(-c3cccc(OC)c3)c(=O)c3ccccc23)c1	11.2 µM [rising, partial curve]	–
Cc1noc(C)c1CCC(=O)N1CCCC(CCC(=O)NCc2ccccc2F)C1 (configuration not stated)	0.158 µM [falling, full curve, poor fit]	–
O=C(CCS(=O)(=O)c1ccc(Br)cc1)Nc1ccc(Cl)c(C(F)(F)F)c1	35.5 µM [falling, single point]	25.1 µM [falling, single point]
Cc1cc(C)cc(-n2c(C)cc(C(=O)CSc3nnnn3C)c2C)c1	17.8 µM [rising, single point]	–
COc1cccc(CN2CCN(S(=O)(=O)c3ccc(Br)cc3)CC2)c1	14.1 µM [rising, single point]	–
C/C(=N\NC(=O)C(=O)Nc1cc(Cl)ccc1Cl)c1ccncc1	–	10 µM [rising, single point]
Cc1occc1C(=O)Nc1ccc(S(=O)(=O)N2CCCC2)cc1	3.98 µM [rising, partial curve]	–

SMILES	AC50 [1]	AC50 [2]
COc1ccc(CNc2cc(-c3ccoc3)ncn2)c(OC)c1	–	11.2 µM [falling, partial curve, poor fit]
O=C(OC1CCOC1=O)c1cc(-c2cccs2)nc2ccccc12 (configuration not stated)	3.55 µM [rising, single point]	2.82 µM [rising, partial curve]
O=C(COc1ccc(Cl)cc1)NCCc1csc(-c2ccc(F)cc2)n1	0.00562 µM [falling, full curve, poor fit]	–
CCN(CC)C(=O)c1cc(C(C)(C)C)c(O)c(C(C)(C)C)c1	22.4 µM [rising, single point]	12.6 µM [rising, single point]
O=C(COc1ccc(Cl)cc1)Nc1ccc(C(=O)NCc2cccnc2)cc1	11.2 µM [rising, single point]	–
COc1cccc(OC)c1C(=O)N1CCN(Cc2ccccc2C)CC1	7.94 µM [rising, partial curve, poor fit]	–
COc1ccc(Cn2c(=O)sc3ccccc32)cc1OC	3.98 µM [rising, full curve]	2.82 µM [rising, full curve]
C#CCSc1nc(Cc2ccc(Cl)cc2)nc2ccccc12	22.4 µM [falling, partial curve]	35.5 µM [falling, single point]
O=S(=O)(c1ccc(Cl)cc1)N1CCN(c2ccc(N3CCOCC3)nn2)CC1	15.8 µM [rising, partial curve, poor fit]	–
Cc1c(/C=N/NC(=O)CNc2ccccc2)c2ccccn2c1C(=O)c1ccccc1	10 µM [rising, partial curve, poor fit]	–
CCCCCNC(=O)c1ccc2c(c1)nc(C)n2-c1cccc(C)c1	–	4.47 µM [falling, partial curve, poor fit]
Cc1ccccc1NC(=O)c1ccc(F)c(S(=O)(=O)N(C)C2CCCCC2)c1	3.16 µM [falling, full curve]	2.51 µM [falling, full curve]
CCOC(=O)c1[nH]c(C)c(C(=O)NCCC2=CCCCC2)c1C	–	11.2 µM [rising, single point]
Cc1nc(-c2ccc(C)c(S(=O)(=O)N3CCC(C(=O)Nc4ccc(Cl)cc4)CC3)c2)no1	8.91 µM [falling, partial curve, poor fit]	7.94 µM [falling, partial curve, poor fit]
COc1ccc(N(C)S(=O)(=O)c2cccc3cccnc23)c(OC)c1	35.5 µM [falling, single point]	35.5 µM [falling, single point]
Cc1ccc(NC(=S)NCCSc2ccc(Cl)cc2)cc1	35.5 µM [falling, single point]	–
Cn1cc(C(=O)c2ccc(F)cc2)cc1-c1nc2ccccc2n1C	25.1 µM [rising, single point]	12.6 µM [rising, partial curve]
COc1cc2[nH]c(=O)n(CCCCCC(=O)N3CCN(c4ccccc4)CC3)c(=O)c2cc1OC	15.8 µM [rising, single point]	2.51 µM [rising, single point]

Three structures out of the list, arranged by heavy-atom count, low to high.
SMILES	AC50 [1]	AC50 [2]
Cn1c[n+](C)cc1-c1ccc(/C(N)=N/O)cc1	1.58 µM [falling, full curve, poor fit]	–
CCN(CC)C(=O)c1cc(C(C)(C)C)c(O)c(C(C)(C)C)c1	22.4 µM [rising, single point]	12.6 µM [rising, single point]
CCOC(=O)c1cccc(NC(=O)c2cn(-c3cccc(OC)c3)c(=O)c3ccccc23)c1	11.2 µM [rising, partial curve]	–
